In patent US20170240920A1:
No constants are given. Whether binding was seen depends on the method and setting. Some results given as binding are weak or reduced against the parent protein; the word gives no strength. Where a sequence is shown, tags or fusion partners need not be part of it.

What was measured:
[1] = target: Streptavidin (Streptomyces avidinii) (UniProt P22629); experiment: sorting of transduced K562 cells with Streptavidin Dynabeads
[2] = target: Streptavidin (Streptomyces avidinii) (UniProt P22629); experiment: flow cytometry, Streptavidin-APC staining of transfected HEK 293T cells
[3] = target: Streptavidin (Streptomyces avidinii) (UniProt P22629); experiment: cell sorting and capture of tagged lentivirus with streptavidin beads
[4] = target: Streptavidin (Streptomyces avidinii) (UniProt P22629); experiment: sorting of transduced K562 cells with streptavidin beads; Streptavidin-APC flow cytometry

Measured: binding

B1: Flankedccstreptag-CD8stalk (peptide, not shown: small tags and cut ends)
chain: AECHPQGPPCIEGRK
binds: all assays above
